The target in this experiment is T1, EGFP-ANXA2 (human, UniProt P07355 1-339).
T1 construct: human annexin A2 (ANXA2) with the fluorescent protein tag in the altered orientation (EGFP-ANXA2); The cloning of this orientation is not described in the methods; source: U2OS or HEK293T cells, transfected (calcium phosphate), in living cells; not shown: EGFP, N-terminal, kept
The experiment can be described thus: FRET or BRET; FLIM-FRET (EGFP donor lifetime, mCherry acceptor) in living HEK293T cells co-transfected with both constructs. In general terms: Bioluminescence resonance energy transfer reports proximity on the nanometre scale.

Chains of the proteins cited; added tags and fusions are not shown. Lines headed by an entry give the natural chain unless they say otherwise; changes in a name come on top.
UniProt P07355: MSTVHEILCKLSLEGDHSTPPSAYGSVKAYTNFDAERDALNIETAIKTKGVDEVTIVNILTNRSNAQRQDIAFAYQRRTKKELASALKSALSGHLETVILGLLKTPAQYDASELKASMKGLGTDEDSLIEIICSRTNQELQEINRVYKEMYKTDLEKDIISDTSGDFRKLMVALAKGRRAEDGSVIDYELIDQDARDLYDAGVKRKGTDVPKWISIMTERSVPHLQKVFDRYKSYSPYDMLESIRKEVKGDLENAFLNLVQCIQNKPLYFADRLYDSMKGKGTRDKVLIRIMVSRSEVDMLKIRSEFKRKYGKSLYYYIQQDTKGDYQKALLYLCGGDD
UniProt P31949: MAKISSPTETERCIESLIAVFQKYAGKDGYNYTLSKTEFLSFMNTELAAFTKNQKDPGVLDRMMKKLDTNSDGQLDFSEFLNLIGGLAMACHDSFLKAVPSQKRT

No constants are given. Whether binding was seen depends on the method and setting. In cells and extracts the contact can be indirect. Binding can be weak; no strength is given.

As to “S100A11ΔCa-mCherry (from UniProt P31949)”, the binding entry is “binds weakly”.

The values are drawn from PMC10988696, “FLIM‐FRET‐based analysis of S100A11/annexin interactions in living cells” (FEBS Open Bio, 2024).
